# Measurements reported in patent publication US20250073194A1, “RXR AGONISTS IN EYE DISORDERS” (Baylor College of Medicine, priority 2022, published 2025).
# Test system: monocytes
# Assay: ATAC seq of LPS-stimulated cultured monocytes (transcription factor binding motifs)
# Assay type: cell-based, mouse
# [1] = 9-cis RA+LPS compared to LPS treatment alone, 100 nM
smiles,measurement,setting,value
"CC1=C(/C=C/C(C)=C\C=C\C(C)=C\C(=O)O)C(C)(C)CCC1 [9-cis RA, 9-cis retinoic acid]","number of known transcription factor motifs increased, including RAR:RXR",[1],5
same,"number of transcription factor motifs decreased, including AP-1",[1],4
same,number of open AP-1 transcription factor binding motifs,"monocytes, ATAC seq",decreases
